No constants are given. Whether binding was seen depends on the method and setting. Some entries that bind do so weakly or less than the wild type.

To fix the notation:
T1: CDH17 (UniProt Q12864)
T1 sequence (looked up): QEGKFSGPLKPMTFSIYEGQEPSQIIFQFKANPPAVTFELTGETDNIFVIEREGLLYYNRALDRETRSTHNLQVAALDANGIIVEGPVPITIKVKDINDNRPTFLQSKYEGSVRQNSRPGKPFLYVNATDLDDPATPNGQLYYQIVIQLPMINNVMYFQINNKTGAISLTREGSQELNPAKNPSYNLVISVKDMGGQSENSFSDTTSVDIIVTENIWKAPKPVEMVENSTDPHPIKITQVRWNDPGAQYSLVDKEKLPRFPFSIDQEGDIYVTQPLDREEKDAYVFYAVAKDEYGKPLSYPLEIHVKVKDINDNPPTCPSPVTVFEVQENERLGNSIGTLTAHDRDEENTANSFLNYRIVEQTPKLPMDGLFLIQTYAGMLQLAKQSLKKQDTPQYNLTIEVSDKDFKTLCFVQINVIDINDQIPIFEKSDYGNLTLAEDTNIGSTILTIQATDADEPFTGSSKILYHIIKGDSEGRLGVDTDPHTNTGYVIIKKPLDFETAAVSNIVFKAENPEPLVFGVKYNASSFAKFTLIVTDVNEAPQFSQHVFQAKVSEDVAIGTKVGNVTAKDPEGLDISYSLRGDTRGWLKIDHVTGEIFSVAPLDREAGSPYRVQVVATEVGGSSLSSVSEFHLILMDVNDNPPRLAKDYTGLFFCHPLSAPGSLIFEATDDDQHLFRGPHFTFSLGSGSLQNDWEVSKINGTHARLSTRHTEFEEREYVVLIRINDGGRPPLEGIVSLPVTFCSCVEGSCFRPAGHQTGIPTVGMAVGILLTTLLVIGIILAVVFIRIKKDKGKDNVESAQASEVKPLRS

B1: ARB101 (humanized Lic3, CDH17 capturing antibody) (antibody, V domains shown)
VH: QVQLQESGGGLVKPGGSLKLSCAASGFSFSDYYMYWVRQAPEKRLEWVASISFDGTYTYYTDRVKGRFTISRDNAKNNLYLQMSSLKSEDTAMYYCARDRPAWFPYWGQGTLVTVSA
VL: DIVLTQTPLSLTVSLGDQASISCRSSQSIVHSNGNTYLGWYLQRPGQSPKLLIYKVSNRFSGVPDRFSGSGSGTDFTLKISRVEAEDLGVYYCFQGSHVPLTFGAGTKLELKR
B2: 9C6 (CDH17 antibody, humanized sequences; D6) (antibody, V domains shown)
VH: QVQLVQSGAEVKKPGASVKVSCKVSGYTFTHYWMHWVRQRPGKGLEWMGEIDPFDSYTYYNQKFKGRVTMTVDTSSDTAYMELSSLRSEDTAVYYCARPLPGTGWYFDVWGQGTTVTVSS
VL: EIVLTQSPTTLSLSPGERATLSCSASSSISSTYLHWYQQKPGFPPRLLIYGTSNLASGIPACFSGSGSGTDFTLTISSLEAEDFAVYYCQQGSSLPFTFGQGTKLEIK
B3: ARB102 (humanized 10C12, CDH17 capturing antibody) (antibody, V domains shown)
VH: EVQLVESGGGLVQPGGSLRLSCAASGFTFSSYAMSWVRQTPGKGLEWVAVIDSNGGSTYYPDTVKDRFTISRDNSKNTLYLQMNSLRAEDTAVYYCSSYTNLGAYWGQGTLVTVSA
VL: DIQMTQSPSSLSASVGDRVTITCRASQDISGYLNWLQQKPGGAIKRLIYTTSTLDSGVPKRFSGSGSGTDFTLTISSLQSEDFATYYCLQYASSPFTFGGGTKVEIK

The test concerns the target T1, CDH17. The test can be described thus: capture ELISA, antibody immobilized on wells, CDH17 from cancer cell culture media and blood. (In general: An ELISA detects its analyte on a solid surface through an enzyme-linked reagent.)
For the molecule B1, the binding result was “binds”.
In the case of B2 it was “binds”.
With B3 the entry was “binds”.

Values taken from patent publication US20210116456A1.
